Assay results: PubChem BioAssay (EPA / NIEHS)
This list was built around the results that the source calls inconclusive (neither active nor inactive); the mix of calls is not that of the screen. Where the call is inconclusive, the potency comes from a doubtful curve fit. Calls of active or inactive are those of the source. The calls were made as follows: active = hit-call score of the fitted dose curve at least 0.9, where 1 is the maximum; inconclusive = response in the unintended direction; inactive = score below 0.9.

Sequences of proteins named here, by UniProt entry; tags and fusion partners are left off. A change or cut given only in a name is not applied to a line headed by its entry.
UniProt Q9UNQ0: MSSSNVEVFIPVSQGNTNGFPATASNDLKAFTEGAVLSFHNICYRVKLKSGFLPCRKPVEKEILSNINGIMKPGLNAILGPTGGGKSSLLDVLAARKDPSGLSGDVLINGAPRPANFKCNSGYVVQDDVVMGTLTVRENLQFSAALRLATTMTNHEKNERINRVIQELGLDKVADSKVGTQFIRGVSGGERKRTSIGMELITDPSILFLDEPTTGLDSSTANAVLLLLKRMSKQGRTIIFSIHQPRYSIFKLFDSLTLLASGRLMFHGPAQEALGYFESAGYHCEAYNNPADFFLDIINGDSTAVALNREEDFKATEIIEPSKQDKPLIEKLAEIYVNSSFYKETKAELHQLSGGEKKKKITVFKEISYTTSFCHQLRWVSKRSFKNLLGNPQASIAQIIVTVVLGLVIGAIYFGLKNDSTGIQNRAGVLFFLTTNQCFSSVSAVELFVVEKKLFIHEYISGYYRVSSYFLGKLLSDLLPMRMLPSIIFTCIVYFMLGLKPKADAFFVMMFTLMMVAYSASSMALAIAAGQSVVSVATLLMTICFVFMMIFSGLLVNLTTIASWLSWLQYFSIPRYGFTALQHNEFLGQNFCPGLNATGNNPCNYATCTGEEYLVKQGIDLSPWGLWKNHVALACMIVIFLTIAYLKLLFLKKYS

Tested on: not listed separately
Assay: Tanguay_ZF_120hpf_NC_legacy: (Legacy) Oregon State University Tanguay Lab 120 Hour Post-fertilization zebrafish Assay for Notochord and Tail Malformation (AID 2283656)
Procedure, shortened: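 Dechorionated 5D zebrafish, 1/well from 6 hpf; static exposure to 120 hpf, 28C, sealed, dark; final DMSO 0.64% v/v. NC scored binary (present/absent); dead embryos not scored. Fit vs DMSO baseline, gain direction.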

Row | SMILES | AC50 | outcome
1 | Oc1ccc(Cl)cc1Cc1ccccc1 | inconclusive: 3.39 µM | 
2 | CN1CSC(=S)N(C)C1 | active: 6.95 µM | 
3 | CC(C)Oc1cccc(NC(=O)c2ccccc2C(F)(F)F)c1 | inconclusive: 202 µM | 
4 | O=[N+]([O-])c1cc(C(F)(F)F)c(Cl)c([N+](=O)[O-])c1Nc1ncc(C(F)(F)F)cc1Cl | inconclusive: 32.3 µM | 
5 | CCCN(CCC)c1c([N+](=O)[O-])cc(S(N)(=O)=O)cc1[N+](=O)[O-] | inconclusive: 128 µM | 
6 | O=C1C2CC=CCC2C(=O)N1SC(Cl)(Cl)Cl (centres undefined) | inconclusive: 8.2 µM | 
7 | CC(C)(C)C(O)/C(=C\c1ccc(Cl)cc1Cl)n1cncn1 (centres undefined) | inconclusive: 29.6 µM | 
8 | CC(C)(C)C(O)C(Oc1ccc(Cl)cc1)n1cncn1 (centres undefined) | inconclusive: 13.3 µM | inactive
9 | Oc1ccc(C(c2ccc(O)cc2)(C(F)(F)F)C(F)(F)F)cc1 |  | inactive
10 | OCCOc1ccccc1 | inconclusive: 62.6 µM | 
11 | CCSC(=O)N(CC)C1CCCCC1 | inconclusive: 0.117 µM | 
12 | O=C(O)C(F)(F)C(F)(F)C(F)(F)C(F)(F)C(F)(F)C(F)(F)C(F)(F)C(F)(F)C(F)(F)F |  | inactive
13 | COC(=O)C=C(C)OP(=O)(OC)OC | inconclusive: 202 µM | 

Read-out: ABC Transporter (ABCB1), ABCB1 (gene 5243)
Assay: CLD_ABCB1_6hr: CellzDirect (CLD) Gene Expression Assay for ABC Transporter (ABCB1) at 6 hours (AID 2283659)
Procedure, shortened: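 Primary human hepatocytes (two donor preparations) dosed daily for two days with chemicals at multiple concentrations, 0.2% DMSO vehicle; harvested 6 h post-dose. ABCB1 mRNA induction quantified by qNPA chemiluminescence; gain-of-signal fitted versus DMSO.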

Row | SMILES | AC50
14 | CCc1nn(C)c(C(=O)NCc2ccc(C(C)(C)C)cc2)c1Cl | inconclusive: 2.91 µM
15 | C=CC1(C)OC(=O)N(c2cc(Cl)cc(Cl)c2)C1=O (centres undefined) | inconclusive: 20 µM
16 | Nc1c(Cl)cc([N+](=O)[O-])cc1Cl | inconclusive: 20 µM

Read-out: Broad substrate specificity ATP-binding cassette transporter ABCG2 (Homo sapiens) (UniProt Q9UNQ0)
Assay: CLD_ABCG2_6hr: CellzDirect (CLD) Gene Expression Assay for ABC Transporter (ABCG2) at 6 hours (AID 2283660)
Procedure, shortened: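 Primary human hepatocytes dosed daily with chemicals at multiple concentrations (0.2% DMSO vehicle), harvested 6 h after dosing. ABCG2 mRNA induction read by quantitative nuclease protection assay (qNPA) chemiluminescence; gain of signal fitted against DMSO baseline.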

Row | SMILES | AC50 | outcome
17 | CCN(CC)C(=O)SCc1ccc(Cl)cc1 | inconclusive: 0.0564 µM | 
18 | O=C(Nc1ccccc1)Nc1cnns1 | inconclusive: 1.11 µM | 
19 | CO/N=C(/C1=NOCCO1)c1ccccc1Oc1ncnc(Oc2ccccc2Cl)c1F |  | inactive
20 | CN1CSC(=S)N(C)C1 |  | inactive
21 | CC(C)Oc1cccc(NC(=O)c2ccccc2C(F)(F)F)c1 | inconclusive: 0.00255 µM | 
22 | C=CC1(C)OC(=O)N(c2cc(Cl)cc(Cl)c2)C1=O (centres undefined) | inconclusive: 20 µM | 
23 | O=[N+]([O-])c1cc(C(F)(F)F)c(Cl)c([N+](=O)[O-])c1Nc1ncc(C(F)(F)F)cc1Cl | inconclusive: 0.967 µM | 
24 | C=C(C)CN(CC)c1c([N+](=O)[O-])cc(C(F)(F)F)cc1[N+](=O)[O-] | inconclusive: 20 µM | 
25 | N#Cc1cc(Br)c(O)c(Br)c1 | inconclusive: 20 µM | 
26 | COC(=O)c1c(C(F)F)nc(C(F)(F)F)c(C2=NCCS2)c1CC(C)C | inconclusive: 0.000531 µM | 
27 | CCSC(=O)N(CC)C1CCCCC1 | inconclusive: 4.35 µM | 

Read-out: xenobiotic metabolism (CYP1A1), CYP1A1 (gene 1543)
Assay: CLD_CYP1A1_6hr: CellzDirect (CLD) Gene Expression Assay for xenobiotic metabolism (CYP1A1) at 6 hours (AID 2283661);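 also: potency for transcript induction above DMSO vehicle baseline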
Procedure, shortened: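 Primary human hepatocytes from two donors, compound versus 0.2% DMSO vehicle. CYP1A1 mRNA measured 6 h after dosing by quantitative nuclease protection assay with chemiluminescent read-out; induction fitted relative to DMSO, cytotoxicity flagged by microscopy.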

Row | SMILES | AC50
28 | CO/N=C(/C1=NOCCO1)c1ccccc1Oc1ncnc(Oc2ccccc2Cl)c1F | inconclusive: 35.3 µM
29 | O=[N+]([O-])c1cc(C(F)(F)F)c(Cl)c([N+](=O)[O-])c1Nc1ncc(C(F)(F)F)cc1Cl | inconclusive: 37.7 µM
30 | CCCN(CCC)c1c([N+](=O)[O-])cc(S(N)(=O)=O)cc1[N+](=O)[O-] | inconclusive: 0.0264 µM
31 | CCOc1cc(Oc2ccc(C(F)(F)F)cc2Cl)ccc1[N+](=O)[O-] | inconclusive: 0.0004 µM
32 | O=C1C2CC=CCC2C(=O)N1SC(Cl)(Cl)Cl (centres undefined) | inconclusive: 5.27 µM
33 | CC(C)(C)C(O)C(Oc1ccc(Cl)cc1)n1cncn1 (centres undefined) | active: 1.55 µM

Exported as tab-separated lines: 2 of the compounds above
Row	SMILES	AC50
28	CO/N=C(/C1=NOCCO1)c1ccccc1Oc1ncnc(Oc2ccccc2Cl)c1F	inconclusive: 35.3 µM
33	CC(C)(C)C(O)C(Oc1ccc(Cl)cc1)n1cncn1 (centres undefined)	active: 1.55 µM
